Results from the supplement of paper PMC10849652.
This is one part of the list.

Sequences of proteins named here, by UniProt entry; tags and fusion partners are left off. A change or cut given only in a name is not applied to a line headed by its entry.
UniProt Q16629: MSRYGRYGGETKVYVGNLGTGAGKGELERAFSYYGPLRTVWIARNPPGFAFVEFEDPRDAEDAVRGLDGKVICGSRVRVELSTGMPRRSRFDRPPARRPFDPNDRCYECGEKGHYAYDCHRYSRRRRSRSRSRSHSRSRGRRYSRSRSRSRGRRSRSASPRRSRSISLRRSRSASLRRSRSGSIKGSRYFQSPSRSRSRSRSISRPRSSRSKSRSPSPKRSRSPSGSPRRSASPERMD
UniProt P08240: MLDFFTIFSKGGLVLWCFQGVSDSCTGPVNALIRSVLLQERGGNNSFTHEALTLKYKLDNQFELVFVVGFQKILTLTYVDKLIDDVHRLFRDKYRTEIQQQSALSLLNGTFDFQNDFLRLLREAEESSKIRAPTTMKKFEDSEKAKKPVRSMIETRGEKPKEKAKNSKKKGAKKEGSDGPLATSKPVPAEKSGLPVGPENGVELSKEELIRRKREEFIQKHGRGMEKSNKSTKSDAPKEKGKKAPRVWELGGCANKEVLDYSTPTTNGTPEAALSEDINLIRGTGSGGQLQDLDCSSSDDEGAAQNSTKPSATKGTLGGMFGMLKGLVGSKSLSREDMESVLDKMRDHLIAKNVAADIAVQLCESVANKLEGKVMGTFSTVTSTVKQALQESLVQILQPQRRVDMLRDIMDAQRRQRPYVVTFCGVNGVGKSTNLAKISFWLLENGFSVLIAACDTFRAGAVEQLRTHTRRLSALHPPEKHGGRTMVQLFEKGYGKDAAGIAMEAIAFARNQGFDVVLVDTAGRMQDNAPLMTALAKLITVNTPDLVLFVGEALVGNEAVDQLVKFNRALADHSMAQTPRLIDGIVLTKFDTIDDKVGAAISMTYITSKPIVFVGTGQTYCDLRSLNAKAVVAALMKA
UniProt Q8WXA9: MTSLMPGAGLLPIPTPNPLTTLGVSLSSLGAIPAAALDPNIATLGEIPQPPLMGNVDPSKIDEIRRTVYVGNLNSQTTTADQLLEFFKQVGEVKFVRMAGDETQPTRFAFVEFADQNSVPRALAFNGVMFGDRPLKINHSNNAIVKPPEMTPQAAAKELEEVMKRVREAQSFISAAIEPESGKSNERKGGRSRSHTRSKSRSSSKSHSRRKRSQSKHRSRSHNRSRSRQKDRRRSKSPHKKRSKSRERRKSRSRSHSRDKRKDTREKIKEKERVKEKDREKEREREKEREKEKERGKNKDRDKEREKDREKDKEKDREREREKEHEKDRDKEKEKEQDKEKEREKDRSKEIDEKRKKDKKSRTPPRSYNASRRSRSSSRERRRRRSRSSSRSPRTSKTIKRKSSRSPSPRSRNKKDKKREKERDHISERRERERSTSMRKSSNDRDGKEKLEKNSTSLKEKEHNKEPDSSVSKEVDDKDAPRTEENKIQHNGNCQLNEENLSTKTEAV
UniProt Q9BRL6: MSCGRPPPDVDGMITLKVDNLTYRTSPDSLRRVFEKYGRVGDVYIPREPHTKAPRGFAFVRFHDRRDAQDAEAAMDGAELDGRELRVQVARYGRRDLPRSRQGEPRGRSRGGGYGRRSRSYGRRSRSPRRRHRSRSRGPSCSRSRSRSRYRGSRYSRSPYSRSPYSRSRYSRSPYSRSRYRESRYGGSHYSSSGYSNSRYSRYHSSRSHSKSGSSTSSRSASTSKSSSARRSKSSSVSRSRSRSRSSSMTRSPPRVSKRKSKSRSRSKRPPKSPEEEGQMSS
UniProt O75494: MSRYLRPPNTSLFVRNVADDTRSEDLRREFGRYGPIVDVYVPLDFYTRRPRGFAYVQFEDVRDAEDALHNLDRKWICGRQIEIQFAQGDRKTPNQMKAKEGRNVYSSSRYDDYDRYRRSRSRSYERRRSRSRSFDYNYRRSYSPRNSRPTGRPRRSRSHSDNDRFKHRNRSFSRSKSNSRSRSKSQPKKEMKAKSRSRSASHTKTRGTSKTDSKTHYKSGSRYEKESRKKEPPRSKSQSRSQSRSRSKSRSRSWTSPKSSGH
UniProt Q9BUA3: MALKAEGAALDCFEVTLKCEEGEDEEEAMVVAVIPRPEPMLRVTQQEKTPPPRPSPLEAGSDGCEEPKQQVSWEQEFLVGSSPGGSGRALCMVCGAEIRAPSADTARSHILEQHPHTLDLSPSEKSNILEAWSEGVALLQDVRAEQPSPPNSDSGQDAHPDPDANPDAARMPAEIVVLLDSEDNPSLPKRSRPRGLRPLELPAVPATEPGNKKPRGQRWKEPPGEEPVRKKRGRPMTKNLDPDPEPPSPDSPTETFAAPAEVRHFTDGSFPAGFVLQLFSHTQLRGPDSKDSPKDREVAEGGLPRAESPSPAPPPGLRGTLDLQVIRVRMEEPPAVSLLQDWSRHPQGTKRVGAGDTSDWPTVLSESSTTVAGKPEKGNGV
UniProt Q13247: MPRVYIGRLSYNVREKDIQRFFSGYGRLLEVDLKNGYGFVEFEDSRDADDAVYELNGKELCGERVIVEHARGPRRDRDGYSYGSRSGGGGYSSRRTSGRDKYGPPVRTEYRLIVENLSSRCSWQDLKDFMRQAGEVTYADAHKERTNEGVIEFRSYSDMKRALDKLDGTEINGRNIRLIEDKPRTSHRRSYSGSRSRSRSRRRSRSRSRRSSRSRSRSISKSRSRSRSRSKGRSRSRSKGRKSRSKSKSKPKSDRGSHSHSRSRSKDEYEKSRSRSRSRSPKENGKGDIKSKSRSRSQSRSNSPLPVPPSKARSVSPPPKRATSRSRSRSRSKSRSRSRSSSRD
UniProt Q9HD15: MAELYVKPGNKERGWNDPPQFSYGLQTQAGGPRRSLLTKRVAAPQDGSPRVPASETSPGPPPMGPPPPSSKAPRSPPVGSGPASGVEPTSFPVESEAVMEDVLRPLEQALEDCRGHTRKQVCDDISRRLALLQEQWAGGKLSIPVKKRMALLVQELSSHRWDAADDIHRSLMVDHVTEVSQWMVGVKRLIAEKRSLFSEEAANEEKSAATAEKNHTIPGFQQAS
UniProt Q96T58, whole entry, looked up: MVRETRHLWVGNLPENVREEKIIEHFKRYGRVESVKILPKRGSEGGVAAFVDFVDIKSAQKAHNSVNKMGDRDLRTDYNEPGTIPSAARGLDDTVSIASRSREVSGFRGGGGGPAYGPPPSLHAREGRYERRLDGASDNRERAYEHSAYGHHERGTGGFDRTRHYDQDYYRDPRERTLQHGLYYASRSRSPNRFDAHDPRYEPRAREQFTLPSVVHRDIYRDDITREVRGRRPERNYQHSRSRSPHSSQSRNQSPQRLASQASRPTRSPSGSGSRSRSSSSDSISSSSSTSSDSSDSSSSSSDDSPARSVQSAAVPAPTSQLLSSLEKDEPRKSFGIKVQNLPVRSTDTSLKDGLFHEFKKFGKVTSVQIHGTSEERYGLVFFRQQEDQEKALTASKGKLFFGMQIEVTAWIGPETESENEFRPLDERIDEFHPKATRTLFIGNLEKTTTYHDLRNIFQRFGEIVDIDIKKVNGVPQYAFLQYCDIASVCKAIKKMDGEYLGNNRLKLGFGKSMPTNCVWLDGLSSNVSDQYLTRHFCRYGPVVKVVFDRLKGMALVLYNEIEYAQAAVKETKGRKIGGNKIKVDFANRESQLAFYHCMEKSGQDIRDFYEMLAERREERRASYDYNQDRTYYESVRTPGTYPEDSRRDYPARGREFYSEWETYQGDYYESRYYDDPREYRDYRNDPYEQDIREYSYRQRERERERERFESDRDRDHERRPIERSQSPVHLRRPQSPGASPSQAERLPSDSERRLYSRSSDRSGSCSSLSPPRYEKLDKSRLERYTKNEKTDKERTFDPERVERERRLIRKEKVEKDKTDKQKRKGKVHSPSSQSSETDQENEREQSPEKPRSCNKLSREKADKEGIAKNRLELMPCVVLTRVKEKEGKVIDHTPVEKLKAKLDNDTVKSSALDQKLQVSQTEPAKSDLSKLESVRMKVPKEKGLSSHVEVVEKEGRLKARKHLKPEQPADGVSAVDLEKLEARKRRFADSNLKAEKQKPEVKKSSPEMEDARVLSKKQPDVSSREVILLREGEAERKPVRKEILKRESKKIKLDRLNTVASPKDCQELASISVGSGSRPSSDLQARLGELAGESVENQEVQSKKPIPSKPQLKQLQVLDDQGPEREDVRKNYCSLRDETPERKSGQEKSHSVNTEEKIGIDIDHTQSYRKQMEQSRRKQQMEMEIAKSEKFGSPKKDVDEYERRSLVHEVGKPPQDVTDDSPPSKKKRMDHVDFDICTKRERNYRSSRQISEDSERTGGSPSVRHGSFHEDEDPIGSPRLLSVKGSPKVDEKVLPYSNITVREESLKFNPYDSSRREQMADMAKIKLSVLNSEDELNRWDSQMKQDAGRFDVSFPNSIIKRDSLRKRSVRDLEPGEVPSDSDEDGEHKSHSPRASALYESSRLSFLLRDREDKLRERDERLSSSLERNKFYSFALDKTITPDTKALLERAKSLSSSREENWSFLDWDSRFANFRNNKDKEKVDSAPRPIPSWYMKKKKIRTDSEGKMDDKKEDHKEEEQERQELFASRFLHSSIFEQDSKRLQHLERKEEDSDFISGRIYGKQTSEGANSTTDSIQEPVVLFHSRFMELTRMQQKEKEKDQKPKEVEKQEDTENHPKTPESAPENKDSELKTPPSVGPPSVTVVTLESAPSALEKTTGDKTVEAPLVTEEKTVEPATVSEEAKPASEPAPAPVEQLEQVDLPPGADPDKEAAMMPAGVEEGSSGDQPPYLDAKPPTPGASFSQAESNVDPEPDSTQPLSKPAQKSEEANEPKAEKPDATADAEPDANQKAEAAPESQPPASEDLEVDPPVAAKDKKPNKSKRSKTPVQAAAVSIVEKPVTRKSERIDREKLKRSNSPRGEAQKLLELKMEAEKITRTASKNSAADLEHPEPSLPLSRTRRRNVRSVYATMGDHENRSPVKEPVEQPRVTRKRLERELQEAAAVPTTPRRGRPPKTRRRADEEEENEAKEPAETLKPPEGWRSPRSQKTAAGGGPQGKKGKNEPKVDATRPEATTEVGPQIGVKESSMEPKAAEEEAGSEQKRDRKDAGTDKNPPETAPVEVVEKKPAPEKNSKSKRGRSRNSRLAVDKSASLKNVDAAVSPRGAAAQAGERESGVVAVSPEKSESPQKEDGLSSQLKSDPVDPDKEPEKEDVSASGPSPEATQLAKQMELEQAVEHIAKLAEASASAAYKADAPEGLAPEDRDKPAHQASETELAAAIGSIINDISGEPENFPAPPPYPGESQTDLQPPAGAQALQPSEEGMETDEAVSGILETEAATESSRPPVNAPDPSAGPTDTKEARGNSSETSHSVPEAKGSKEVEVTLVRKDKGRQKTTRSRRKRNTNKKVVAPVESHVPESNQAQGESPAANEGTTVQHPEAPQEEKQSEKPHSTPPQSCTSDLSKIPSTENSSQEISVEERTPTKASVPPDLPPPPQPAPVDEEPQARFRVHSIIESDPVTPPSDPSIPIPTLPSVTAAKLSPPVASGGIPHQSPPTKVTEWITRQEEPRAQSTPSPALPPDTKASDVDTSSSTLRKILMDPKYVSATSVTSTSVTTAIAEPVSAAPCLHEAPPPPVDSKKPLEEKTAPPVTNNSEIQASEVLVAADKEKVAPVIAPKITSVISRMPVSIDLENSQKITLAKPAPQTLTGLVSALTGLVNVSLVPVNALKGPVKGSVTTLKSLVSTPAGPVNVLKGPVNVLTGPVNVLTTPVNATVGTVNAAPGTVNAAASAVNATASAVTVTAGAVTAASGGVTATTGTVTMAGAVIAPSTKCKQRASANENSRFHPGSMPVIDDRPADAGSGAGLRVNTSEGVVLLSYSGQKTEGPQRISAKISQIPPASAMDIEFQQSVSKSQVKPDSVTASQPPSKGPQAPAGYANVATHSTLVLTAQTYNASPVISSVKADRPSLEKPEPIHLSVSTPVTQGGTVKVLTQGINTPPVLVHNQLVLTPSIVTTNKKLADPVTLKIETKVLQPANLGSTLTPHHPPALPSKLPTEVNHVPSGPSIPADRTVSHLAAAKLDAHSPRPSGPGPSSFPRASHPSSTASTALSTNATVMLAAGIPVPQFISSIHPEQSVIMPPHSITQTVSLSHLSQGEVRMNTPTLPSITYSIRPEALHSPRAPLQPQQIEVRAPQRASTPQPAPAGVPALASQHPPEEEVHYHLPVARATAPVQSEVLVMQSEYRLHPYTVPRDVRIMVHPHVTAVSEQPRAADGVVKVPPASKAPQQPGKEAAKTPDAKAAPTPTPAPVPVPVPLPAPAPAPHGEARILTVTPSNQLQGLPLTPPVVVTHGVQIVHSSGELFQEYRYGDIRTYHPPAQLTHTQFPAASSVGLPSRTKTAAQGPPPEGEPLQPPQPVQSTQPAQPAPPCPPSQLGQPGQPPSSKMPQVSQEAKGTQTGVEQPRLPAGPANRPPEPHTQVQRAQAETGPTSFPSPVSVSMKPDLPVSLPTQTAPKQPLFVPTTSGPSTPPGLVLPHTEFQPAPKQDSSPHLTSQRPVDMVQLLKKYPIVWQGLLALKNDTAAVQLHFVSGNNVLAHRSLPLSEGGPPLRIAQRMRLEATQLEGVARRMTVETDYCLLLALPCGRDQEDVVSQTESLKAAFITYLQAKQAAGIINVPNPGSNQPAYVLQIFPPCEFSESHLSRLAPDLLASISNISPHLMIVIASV

Key:
Assay in all cases: log2 fold change, soluble protein after heating vs DMSO (PISA); higher = thermal stabilisation; K562 lysate, 10 uM; active = over 0.2 and 3.5 SD of the protein, either way, in both replicates (recomputed)
ibrutinib = compound: C=CC(=O)N1CCC[C@@H](n2nc(-c3ccc(Oc4ccccc4)cc3)c3c(N)ncnc32)C1 [ibrutinib]
Summary of the method: (§1)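 Soluble protein was defined as the supernatant remaining after 21,000xg for 90 min, following pooling of heated aliquots and adjustment to 0.5% NP-40 at 4°C. Before that, crude K562 extract at 1 mg/mL protein in PBS pH 7.4 with 1 mM MgCl2 was treated with 10 μM compound for 30 min and heated for 3 min across 48°C-58°C. Quantification used TMTpro 16plex LC-MS/MS with channel sums equalised, and values are log-two fold changes in thermal stability relative to solvent controls from duplicates.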

[1] = compound: CC(=O)c1cnc2ccc(-c3cc(Cl)c(O)c(Cl)c3)nc2c1N[C@H]1CC[C@H](CN(C)C)CC1
Summary of the method: as §1

ralimetinib = compound: CC(C)(C)Cn1c(N)nc2ccc(-c3[nH]c(C(C)(C)C)nc3-c3ccc(F)cc3)nc21 [ralimetinib]
Summary of the method: as §1

[2] = compound: CC(C)(O)CC(=O)NCCn1ccc2ncnc(Nc3ccc(Oc4cccc(C(F)(F)F)c4)c(Cl)c3)c21
Summary of the method: as §1

[3] = compound: CC(C)C1=C2N=C(C=C(N2N=C1)NCC3=CC=CC=C3)NCCCCCCN
Summary of the method: as §1

[4] = compound: CC1=C(C(CC(=O)N1)C2=CC=C(C=C2)C(F)(F)F)C(=O)NC3=C(C=C4C(=C3)C=NN4)F
Summary of the method: as §1

[5] = compound: CC1=C(C2=C(C=C1)C(=O)C3=CC=CC=C3N2CCCN)C
Summary of the method: as §1

[6] = compound: CC1=C(C=C(C=C1)NC(=O)C2=CC(=CC=C2)C(C)(C)C#N)NC3=CC4=C(C=C3)N=CN(C4=O)C
Summary of the method: as §1

[7] = compound: CC1=C(C=C(C=C1)NC(=O)C2=CC(=CC=C2)N(C)C)NC(=O)C3=CC=C(C=C3)O
Summary of the method: as §1

[8] = compound: CC1=CC=C(C=C1)SC2=C3C=C(SC3=CN=C2)C(=O)N
Summary of the method: as §1

vemurafenib = compound: CCCS(=O)(=O)Nc1ccc(F)c(C(=O)c2c[nH]c3ncc(-c4ccc(Cl)cc4)cc23)c1F [vemurafenib]
Summary of the method: as §1

[9] = compound: CCCS(=O)(=O)Nc1ccc(F)c(C(=O)c2c[nH]c3ncc(Cl)cc23)c1F
Summary of the method: as §1

barasertib = compound: CCN(CCCOc1ccc2c(Nc3cc(CC(=O)Nc4cccc(F)c4)[nH]n3)ncnc2c1)CCOP(=O)(O)O [barasertib]
Summary of the method: as §1

[10] = compound: CC[C@@H]1C(=O)N(C)c2cnc(Nc3ccc(C(=O)NC4CCN(C)CC4)cc3OC)nc2N1C1CCCC1
Summary of the method: as §1

volasertib = compound: CC[C@@H]1C(=O)N(C)c2cnc(Nc3ccc(C(=O)N[C@H]4CC[C@H](N5CCN(CC6CC6)CC5)CC4)cc3OC)nc2N1C(C)C [volasertib]
Summary of the method: as §1

[11] = compound: CCn1c(C(=O)N(C2CC2)C2CC2)cc2c3c(ncn3C)c(Nc3cc(C)n(C)n3)nc21
Summary of the method: as §1

[12] = compound: CCn1cc(-c2ccnc3[nH]c(-c4cccc(CN(C)C)c4)cc23)c(-c2ccc(NC(=O)N(C)C)cc2)n1
Summary of the method: as §1

[13] = compound: CN1CCC(CNc2ccc3ncc(-c4cccc(OC(F)(F)F)c4)n3n2)CC1
Summary of the method: as §1

saracatinib = compound: CN1CCN(CCOc2cc(OC3CCOCC3)c3c(Nc4c(Cl)ccc5c4OCO5)ncnc3c2)CC1 [saracatinib]
Summary of the method: as §1

sotrastaurin = compound: CN1CCN(c2nc(C3=C(c4c[nH]c5ccccc45)C(=O)NC3=O)c3ccccc3n2)CC1 [sotrastaurin]
Summary of the method: as §1

| Target | log2 fold change (ibrutinib) | log2 fold change [1] | log2 fold change (ralimetinib) | log2 fold change [2] | log2 fold change [3] | log2 fold change [4] | log2 fold change [5] | log2 fold change [6] | log2 fold change [7] | log2 fold change [8] | log2 fold change (vemurafenib) | log2 fold change [9] | log2 fold change (barasertib) | log2 fold change [10] | log2 fold change (volasertib) | log2 fold change [11] | log2 fold change [12] | log2 fold change [13] | log2 fold change (saracatinib) | log2 fold change (sotrastaurin) |
| --- | --- | --- | --- | --- | --- | --- | --- | --- | --- | --- | --- | --- | --- | --- | --- | --- | --- | --- | --- | --- |
| SRSF7 (UniProt Q16629) | inactive: -0.114 | inactive: -0.071 | inactive: 0.074 | inactive: -0.004 | inactive: 0 | inactive: -0.005 | inactive: -0.023 | inactive: -0.037 | inactive: 0.02 | inactive: -0.079 | inactive: 0.012 | inactive: 0.03 | inactive: -0.057 | inactive: -0.007 | inactive: 0.012 | inactive: 0.017 | inactive: -0.034 | inactive: 0.193 | inactive: -0.008 | inactive: 0.028 |
| SPTBN2 (UniProt O15020) | inactive: 0.027 | inactive: -0.034 | inactive: -0.026 | inactive: 0.005 | inactive: 0.002 | inactive: -0.036 | inactive: 0.021 | inactive: -0.04 | inactive: 0.003 | inactive: 0.02 | inactive: 0.001 | inactive: -0.001 | inactive: 0.032 | inactive: -0.008 | inactive: -0.015 | inactive: 0.033 | inactive: -0.044 | inactive: 0.03 | inactive: 0.002 | inactive: -0.013 |
| STAT3 isoform 2 (UniProt P40763) | inactive: -0.005 | inactive: 0.006 | inactive: 0.007 | inactive: -0.016 | inactive: 0.007 | inactive: -0.01 | inactive: 0.022 | inactive: 0.016 | inactive: 0.015 | inactive: -0.011 | inactive: 0.033 | inactive: 0.021 | inactive: -0.003 | inactive: -0.03 | inactive: -0.044 | inactive: -0.008 | inactive: 0.049 | inactive: -0.055 | inactive: 0.003 | inactive: -0.011 |
| ST13 (UniProt P50502) | inactive: 0.021 | inactive: 0.026 | inactive: -0.013 | inactive: 0.014 | inactive: -0.005 | inactive: -0.01 | inactive: 0.008 | inactive: 0.003 | inactive: -0.026 | inactive: 0.01 | inactive: 0.014 | inactive: -0.021 | inactive: -0.015 | inactive: 0.02 | inactive: 0.007 | inactive: -0.001 | inactive: 0.031 | inactive: -0.004 | inactive: -0.007 | inactive: -0.028 |
| SRPRA (UniProt P08240) | inactive: -0.009 | inactive: -0.006 | inactive: -0.007 | inactive: 0.03 | inactive: -0.024 | inactive: 0.016 | inactive: 0.034 | inactive: -0.028 | inactive: 0.007 | inactive: 0.017 | inactive: -0.02 | inactive: -0.005 | inactive: 0.044 | inactive: -0.032 | inactive: -0.016 | inactive: 0.018 | inactive: -0.027 | inactive: -0.017 | inactive: -0.002 | inactive: -0.017 |
| SREK1 isoform 2 (UniProt Q8WXA9) | inactive: 0.025 | inactive: 0.009 | inactive: -0.005 | inactive: -0.006 | inactive: 0.003 | inactive: 0.016 | inactive: 0.021 | inactive: 0.005 | inactive: 0.008 | inactive: -0.018 | inactive: 0.006 | inactive: 0.02 | inactive: -0.029 | inactive: -0.021 | inactive: -0.034 | inactive: -0.018 | inactive: -0.038 | inactive: 0.001 | inactive: -0.021 | inactive: -0.006 |
| SRSF8 (UniProt Q9BRL6) | inactive: -0.035 | inactive: 0.013 | inactive: 0.033 | inactive: -0.016 | inactive: -0.014 | inactive: -0.033 | inactive: -0.029 | inactive: -0.011 | inactive: 0.022 | inactive: 0 | inactive: 0.01 | inactive: -0.025 | inactive: 0.014 | inactive: -0.074 | inactive: 0.016 | inactive: -0.008 | inactive: 0.007 | inactive: 0.087 | inactive: -0.003 | inactive: -0.007 |
| SRSF10 (UniProt O75494) | inactive: -0.057 | inactive: 0.027 | inactive: 0.032 | inactive: 0.01 | inactive: 0.019 | inactive: -0.029 | inactive: -0.037 | inactive: -0.041 | inactive: 0.018 | inactive: 0.031 | inactive: 0.017 | inactive: -0.003 | inactive: -0.06 | inactive: -0.049 | inactive: -0.065 | inactive: 0.035 | inactive: 0.212 | inactive: 0.001 | inactive: -0.043 | inactive: 0.014 |
| SSB (UniProt E7ERC4) | inactive: 0.14 | inactive: -0.087 | inactive: -0.009 | inactive: -0.075 | inactive: -0.046 | inactive: 0.062 | inactive: 0.014 | inactive: 0.239 | inactive: 0.093 | inactive: -0.013 | inactive: 0.111 | inactive: 0 | inactive: -0.04 | inactive: -0.281 | inactive: 0.003 | inactive: -0.134 | active: 1.92 | inactive: -0.377 | inactive: 0.013 | inactive: -0.012 |
| STAU1 (UniProt O95793) | inactive: 0.043 | inactive: -0.021 | inactive: 0.03 | inactive: -0.011 | inactive: 0 | inactive: 0.017 | inactive: -0.022 | inactive: -0.037 | inactive: 0.018 | inactive: 0.022 | inactive: 0.027 | inactive: 0.003 | inactive: 0.01 | inactive: 0 | inactive: -0.013 | inactive: 0.069 | inactive: 0.25 | inactive: -0.103 | inactive: 0.004 | inactive: -0.039 |
| SRGAP2 (UniProt O75044) | inactive: 0.028 | inactive: 0.015 | inactive: 0 | inactive: -0.025 | inactive: -0.016 | inactive: -0.009 | inactive: -0.014 | inactive: -0.011 | inactive: 0.057 | inactive: -0.003 | inactive: 0.032 | inactive: 0.031 | inactive: -0.007 | inactive: 0.032 | inactive: -0.019 | inactive: 0.023 | inactive: 0.003 | inactive: 0.022 | inactive: -0.011 | inactive: -0.013 |
| SPINDOC (UniProt Q9BUA3) | inactive: 0.033 | inactive: 0.066 | inactive: 0.003 | inactive: -0.021 | inactive: 0.014 | inactive: -0.024 | inactive: -0.038 | inactive: -0.014 | inactive: 0.031 | inactive: -0.06 | inactive: 0.069 | inactive: 0.056 | inactive: -0.052 | inactive: 0.157 | inactive: -0.025 | inactive: -0.034 | inactive: -0.07 | inactive: 0.035 | inactive: 0.021 | inactive: 0.024 |
| SRSF6 (UniProt Q13247) | inactive: 0.036 | inactive: 0.018 | inactive: -0.008 | inactive: 0.063 | inactive: -0.032 | inactive: 0 | inactive: -0.02 | inactive: -0.119 | inactive: 0.021 | inactive: 0.01 | inactive: -0.141 | inactive: -0.014 | inactive: 0.015 | inactive: -0.021 | inactive: 0.015 | inactive: 0.103 | inactive: 0.224 | inactive: -0.097 | inactive: 0.021 | inactive: 0.022 |
| SRA1 (UniProt Q9HD15) | inactive: 0.046 | inactive: 0.004 | inactive: 0.032 | inactive: -0.04 | inactive: -0.006 | inactive: -0.054 | inactive: -0.067 | inactive: 0.023 | inactive: 0.005 | inactive: -0.023 | inactive: 0.009 | inactive: 0.02 | inactive: 0.045 | inactive: 0.016 | inactive: 0.001 | inactive: -0.019 | inactive: 0 | inactive: 0.1 | inactive: 0.024 | inactive: 0.035 |
| SRP14 (UniProt P37108) | inactive: -0.021 | inactive: -0.026 | inactive: -0.01 | inactive: -0.03 | inactive: 0.009 | inactive: 0.08 | inactive: -0.014 | inactive: 0.006 | inactive: 0.025 | inactive: -0.022 | inactive: 0.002 | inactive: -0.016 | inactive: -0.024 | inactive: 0.023 | inactive: 0.016 | inactive: -0.031 | inactive: -0.11 | inactive: -0.012 | inactive: -0.006 | inactive: 0.02 |
| SPEN (UniProt Q96T58) | inactive: 0.168 | inactive: 0.142 | inactive: 0.002 | inactive: -0.077 | inactive: 0.023 | inactive: 0.049 | inactive: -0.124 | inactive: -0.01 | inactive: 0.035 | inactive: -0.004 | inactive: 0.021 | inactive: 0.046 | inactive: -0.073 | inactive: 0.019 | inactive: -0.036 | inactive: -0.003 | inactive: -0.227 | inactive: 0.087 | inactive: -0.026 | inactive: 0.066 |

Single records (already shown). Order of values: log2 fold change (ibrutinib) | log2 fold change [1] | log2 fold change (ralimetinib) | log2 fold change [2] | log2 fold change [3] | log2 fold change [4] | log2 fold change [5] | log2 fold change [6] | log2 fold change [7] | log2 fold change [8] | log2 fold change (vemurafenib) | log2 fold change [9] | log2 fold change (barasertib) | log2 fold change [10] | log2 fold change (volasertib) | log2 fold change [11] | log2 fold change [12] | log2 fold change [13] | log2 fold change (saracatinib) | log2 fold change (sotrastaurin)
ST13 (UniProt P50502) as listed: inactive: 0.021 | inactive: 0.026 | inactive: -0.013 | inactive: 0.014 | inactive: -0.005 | inactive: -0.01 | inactive: 0.008 | inactive: 0.003 | inactive: -0.026 | inactive: 0.01 | inactive: 0.014 | inactive: -0.021 | inactive: -0.015 | inactive: 0.02 | inactive: 0.007 | inactive: -0.001 | inactive: 0.031 | inactive: -0.004 | inactive: -0.007 | inactive: -0.028
SPTBN2 (UniProt O15020) as listed: inactive: 0.027 | inactive: -0.034 | inactive: -0.026 | inactive: 0.005 | inactive: 0.002 | inactive: -0.036 | inactive: 0.021 | inactive: -0.04 | inactive: 0.003 | inactive: 0.02 | inactive: 0.001 | inactive: -0.001 | inactive: 0.032 | inactive: -0.008 | inactive: -0.015 | inactive: 0.033 | inactive: -0.044 | inactive: 0.03 | inactive: 0.002 | inactive: -0.013
